Weaker means in comparison with the reference protein, sequence or condition of that experiment. Where a protein sequence is shown, tags need not be part of it.
Legend:
[1] = molecular target: T1, Rbp95 full length (Saccharomyces cerevisiae) (UniProt P25617); experiment: competition with a labelled probe; conditions: 20-100-fold excess over Cy5-H95, very ineffective; EMSA: 25 mM Tris-HCl pH 7.5, 75 mM NaCl, 2.5 mM MgCl2, 3.5% glycerol, 0.025% Tween 20, 0.5 mM DTT, 5 nM Cy5-RNA, 30 min at RT; 4-20% TBE gel; recombinant protein; residues 1-290; protein details: N-terminal His6
T1 sequence (looked up): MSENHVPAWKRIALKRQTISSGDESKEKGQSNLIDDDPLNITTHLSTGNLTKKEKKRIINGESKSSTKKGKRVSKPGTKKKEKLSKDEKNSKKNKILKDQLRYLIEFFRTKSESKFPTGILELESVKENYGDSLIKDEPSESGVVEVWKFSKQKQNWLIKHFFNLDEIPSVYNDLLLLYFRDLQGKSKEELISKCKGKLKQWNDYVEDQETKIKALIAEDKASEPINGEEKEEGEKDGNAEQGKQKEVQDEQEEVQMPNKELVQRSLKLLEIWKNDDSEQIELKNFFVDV

[2] = molecular target: T1, Rbp95 full length (Saccharomyces cerevisiae); experiment: EMSA; conditions: 5 nM RNA, at least ~4-fold excess needed for shift; EMSA: 25 mM Tris-HCl pH 7.5, 75 mM NaCl, 2.5 mM MgCl2, 3.5% glycerol, 0.025% Tween 20, 0.5 mM DTT, 5 nM Cy5-RNA, 30 min at RT; 4-20% TBE gel; recombinant protein; residues 1-290; protein details: N-terminal His6; label: 5'-Cy5
[3] = molecular target: T2, Rbp95 84-end (Saccharomyces cerevisiae) (UniProt P25617); experiment: EMSA; conditions: 100- or 500-fold excess, much weaker than 1-85; EMSA: 25 mM Tris-HCl pH 7.5, 75 mM NaCl, 2.5 mM MgCl2, 3.5% glycerol, 0.025% Tween 20, 0.5 mM DTT, 5 nM Cy5-RNA, 30 min at RT; 4-20% TBE gel; recombinant protein; residues 84-290; protein details: N-terminal His6; label: 5'-Cy5
T2 sequence (looked up): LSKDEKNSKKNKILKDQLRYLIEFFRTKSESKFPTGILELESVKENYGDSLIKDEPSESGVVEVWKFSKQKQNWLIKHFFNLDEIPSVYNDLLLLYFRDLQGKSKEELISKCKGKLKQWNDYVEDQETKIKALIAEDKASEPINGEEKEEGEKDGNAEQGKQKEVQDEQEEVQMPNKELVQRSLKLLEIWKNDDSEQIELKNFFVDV

[4] = molecular target: T3, Rbp95 84-223 (Saccharomyces cerevisiae) (UniProt P25617); experiment: EMSA; conditions: 100- or 500-fold excess, reduced versus 84-end; EMSA: 25 mM Tris-HCl pH 7.5, 75 mM NaCl, 2.5 mM MgCl2, 3.5% glycerol, 0.025% Tween 20, 0.5 mM DTT, 5 nM Cy5-RNA, 30 min at RT; 4-20% TBE gel; recombinant protein; residues 84-223; protein details: N-terminal His6; label: 5'-Cy5
T3 sequence (looked up): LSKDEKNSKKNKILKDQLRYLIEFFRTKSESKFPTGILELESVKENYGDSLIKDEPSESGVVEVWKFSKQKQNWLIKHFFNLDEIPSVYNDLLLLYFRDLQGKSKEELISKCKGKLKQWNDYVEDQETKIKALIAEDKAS

AAAAAAAAAAAAAAAAAAAAAAAAAAAAAAAAAAAAAAAAAA [poly(A) unlabeled competitor]
binding result [1]: binds more weakly

AAAAAAAAAAAAAAAAAAAAAAAAAAAAAAAAAAAAAAAAAA [poly(A)42]
binding result [2]: binds more weakly

AAAGGGAAUUGAACUUAGUACGAGAGGAACAGUUCAUUUCCC [helix H95 (25S rRNA)]
binding result [3]: binds more weakly
binding result [4]: binds more weakly

From publication PMC9508819, “Rbp95 binds to 25S rRNA helix H95 and cooperates with the Npa1 complex during early pre-60S particle maturation”
